In PMC4026379 one finds binding data, which are given here for 2 substances.

Where a chain is given by its changes, count along the chain named. These are yes or no findings as the source states them, for the method shown. Binding seen in cells or lysates may run through a third protein. For some of these results: A result given as binding can be weak or reduced; the word gives no strength. Tags and fused reporters may be left off the sequences shown.

Assay [1] deals with T1, GST-Abp1 SH3 P523A (Drosophila melanogaster) (UniProt Q9VU84).
T1 sequence: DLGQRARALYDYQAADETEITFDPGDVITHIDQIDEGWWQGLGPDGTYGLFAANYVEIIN
Kind of assay: pull-down; immobilized, purified, recombinant GST fusion proteins incubated with fly head extracts (10 mM HEPES pH 7.4, 1 mM EGTA, 0.1 mM MgCl2, 150 mM NaCl, protease inhibitor, 1% Triton X-100; 16,000xg supernatant); immunoblot for WASP and Scar; only the target purified. In general terms: A western blot detects proteins with antibodies after separation by electrophoresis.

Assay [2] deals with T2, GST-Abp1 SH3 domain fusion protein (Drosophila melanogaster) (UniProt Q9VU84).
T2 sequence: T1 sequence with A52P
The description is as above.

Take Scar: the binding entry in assay [1] is recorded as “no binding”; in assay [2], “binds”.

As to WASP, the binding entry in assay [1] is recorded as “no binding”; in assay [2], “binds”.
